No constants are given. Whether binding was seen depends on the method and setting. Some results given as binding are weak or reduced against the parent protein; the word gives no strength. Sequences can lack the tags named with a protein.
Biological target: p55 (yeast two-hybrid fusion) (Drosophila) (UniProt Q24572)
Assay: two-hybrid; Matchmaker Two-Hybrid system 3, strain AH109; growth on high-stringency plates (SD/-Ade/-His/-Leu/-Trp), confirmed by X-Gal staining of filter-lifted colonies

Protein sequences, listed by entry. Tags and fused reporters are not part of them.
UniProt Q24572: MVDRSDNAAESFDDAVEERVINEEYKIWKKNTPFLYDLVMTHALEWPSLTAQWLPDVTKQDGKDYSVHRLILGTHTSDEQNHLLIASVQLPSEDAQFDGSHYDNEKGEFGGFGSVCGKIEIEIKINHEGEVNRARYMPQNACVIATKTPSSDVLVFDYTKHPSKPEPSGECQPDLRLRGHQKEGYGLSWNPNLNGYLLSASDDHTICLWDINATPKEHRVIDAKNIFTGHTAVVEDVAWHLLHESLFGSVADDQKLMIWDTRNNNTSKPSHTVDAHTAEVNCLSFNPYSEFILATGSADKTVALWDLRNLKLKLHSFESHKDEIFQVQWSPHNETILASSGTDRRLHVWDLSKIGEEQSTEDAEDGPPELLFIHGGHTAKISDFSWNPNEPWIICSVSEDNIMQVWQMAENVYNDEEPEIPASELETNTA

B1: MTA-like (yeast two-hybrid fusion) (protein, UniProt Q9VNF6 1-880)
chain: MATNMYRVGDYVYVETTPNSPYLIRRIEELNKNQTGNVEAKVMCFYRRRDLPNPLVQLADKHQLATAEDSPLATKLKKTWLRTPVSEEQAAQAVLDPSIAALDEERTSPTQTSGGGGSATGNSGSNSSGTSNNNSSSTAIGGGAGGSGGAGGDAEKGEALTSKQRYQIKHRELFLSRQVESIPATQIRGKCSVTLLNETESLQSYLNKDDTFFYCLVFDPNQKTLLADKGEIRVGSRYQCDIPAKLKDTATDDRKLEELESLVWTPEHSLTDRKIDQFLVVSRSIGTFARALDCSSSVKQPSLHMSAAAASRDITLFHAMNILHKHEYSIEESMSSLVPSTGPVLCRDEIEDWSASEANLFEEALEKYGKDFNDIRQDFLPWKTLKQIIEYYYMWKTTDRYVQQKRVKAVEAELKLKQVYIPQYNNNGKGNGTSTKAGGGIYNGTTNGSTDLSSNGKPCESCGTTKSSQWNSVSSGHSTSRLCLSCWEYWRRYGSMKSATKGDAGEGDAKKKSSSAASTPTATLAGLATTPTAVVDLNDDEKISDLTNRQLHRCSIVNCGKEFKLKTHLARHYAQAHGIAISSGSPRPIMKTRTAFYLHTNPMTRVARAICRSIVKPKKAARQSAYAINAMLVKQEFTNRISGKSQAEIKKLLLLKPKDRGSVTKIANRLGAPGSGPHEWLVLTPKDKMPLPAVVSFPKPPKAPDGSLVYDRVPNKSPDVVAVPADKELTIIPTQATSTIRKRAHEDQQLNGTEVTIVPSGPPAKRPNKDPMPSHCPSPEQFAAMMAASGQPLSRHHLNGKQKIAQMARGGNGRKQVISWMDAPDDVYFRANDTHKKTRKILSAVDLRRAARKPWRTLPIKPAAPEPSSRPIESQIVILD
- binding: binds

Source: PMC529442
